Measurements reported in PubChem BioAssay AID1671195 (Yale University, 2021)
Aim: 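Genes whose knockdown alters LDL uptake in liver cancer cells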 (primary screen). Cell system: human Huh7 hepatoma cells. Reagents: siRNA pool against human genes, 18 nM. Duration: about 2 to 2.5 days of knockdown, then 8 h LDL uptake. Treatment: DiI-labelled LDL at 30 µg/ml for 8 h, in lipoprotein-deficient serum medium. Measurement: 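Per-cell DiI-LDL intensity by automated imaging; well means scaled to the plate median and given as a robust z-score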. Reading the numbers: robust z-score: higher = more LDL uptake after knockdown. Call rule: 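Active when two or more replicates show a robust z-score above 2 or below -2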.
The deposit covers about 22,000 reagents; below is a part drawn at random. About 1,510 of all reagents (6.9%) were called active. 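Active includes knockdowns raising or lowering LDL uptake; positive z-scores mean more uptake, negative mean less.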 A number with no mark means an inactive call. No sequences are given here.

HLA-A: robust z-score, replicate 1 = 0.387; robust z-score, replicate 2 = 0.205; robust z-score, replicate 3 = 0.566
DACT3: robust z-score, replicate 1 = 1.91; robust z-score, replicate 2 = 1.39; robust z-score, replicate 3 = 1.89
TNFAIP2: robust z-score, replicate 1 = -0.534; robust z-score, replicate 2 = -1.66; robust z-score, replicate 3 = 0.902
CRTAM: robust z-score, replicate 1 = -0.14; robust z-score, replicate 2 = -0.436; robust z-score, replicate 3 = -0.0819
GNA13: robust z-score, replicate 1 = -1.71; robust z-score, replicate 2 = -1.44; robust z-score, replicate 3 = -1.24
CCDC80: robust z-score, replicate 1 = -0.628; robust z-score, replicate 2 = 0.794; robust z-score, replicate 3 = -0.542
SCN3A: robust z-score, replicate 1 = 0.281; robust z-score, replicate 2 = -0.131; robust z-score, replicate 3 = 1.2
PRKCA: robust z-score, replicate 1 = 0.617; robust z-score, replicate 2 = 1.21; robust z-score, replicate 3 = -0.23
RITA1: robust z-score, replicate 1 = -0.253; robust z-score, replicate 2 = -0.994; robust z-score, replicate 3 = -0.456
XKR5: robust z-score, replicate 1 = 1.24 (active); robust z-score, replicate 2 = 2.4; robust z-score, replicate 3 = 2.62
TRIM4: robust z-score, replicate 1 = -0.76; robust z-score, replicate 2 = -1.36; robust z-score, replicate 3 = -0.0907
SVIL: robust z-score, replicate 1 = 2.58 (active); robust z-score, replicate 2 = 2.14; robust z-score, replicate 3 = 2.48
ST13: robust z-score, replicate 1 = 0.273; robust z-score, replicate 2 = -0.206; robust z-score, replicate 3 = 0.125
LOC441874 (retired record): robust z-score, replicate 1 = -0.0593; robust z-score, replicate 2 = -0.246; robust z-score, replicate 3 = 0.0462
DYRK4: robust z-score, replicate 1 = -2.46 (active); robust z-score, replicate 2 = -1.96; robust z-score, replicate 3 = -2.59
TIGD5: robust z-score, replicate 1 = 0.68; robust z-score, replicate 2 = 0.904; robust z-score, replicate 3 = 0.46

Only “robust z-score, replicate 2”, for 2 of the entries above:
DYRK4 = -1.96 (active)
TIGD5 = 0.904

More reagents follow:
RPL26P13: robust z-score, replicate 1 = -1.16; robust z-score, replicate 2 = -0.721; robust z-score, replicate 3 = -0.81
LHFPL7: robust z-score, replicate 1 = 1.02; robust z-score, replicate 2 = 1.16; robust z-score, replicate 3 = 1.1
BAGE: robust z-score, replicate 1 = -1.89; robust z-score, replicate 2 = -1.67; robust z-score, replicate 3 = -1.33
RIOX1: robust z-score, replicate 1 = 1.19; robust z-score, replicate 2 = 0.756; robust z-score, replicate 3 = 1.4
CCDC107: robust z-score, replicate 1 = -0.935; robust z-score, replicate 2 = -1.33; robust z-score, replicate 3 = -1.17
KCNMB4: robust z-score, replicate 1 = 1.3; robust z-score, replicate 2 = 0.229; robust z-score, replicate 3 = 1.5
NAIP: robust z-score, replicate 1 = 0.38; robust z-score, replicate 2 = -0.0548; robust z-score, replicate 3 = 0.459
FAM187B: robust z-score, replicate 1 = -0.374; robust z-score, replicate 2 = 0.0585; robust z-score, replicate 3 = -0.457
BAG6: robust z-score, replicate 1 = 1.49; robust z-score, replicate 2 = 1.45; robust z-score, replicate 3 = 1.7
NKTR: robust z-score, replicate 1 = 0.689; robust z-score, replicate 2 = -0.2; robust z-score, replicate 3 = 1.23
ATP6V1E1P1: robust z-score, replicate 1 = -1.1; robust z-score, replicate 2 = -0.753; robust z-score, replicate 3 = -0.435
GBP2: robust z-score, replicate 1 = -0.651; robust z-score, replicate 2 = -0.849; robust z-score, replicate 3 = 0.0199
CST4: robust z-score, replicate 1 = -0.159; robust z-score, replicate 2 = -0.75; robust z-score, replicate 3 = -0.627
CDC37L1: robust z-score, replicate 1 = 0.417; robust z-score, replicate 2 = 0.00451; robust z-score, replicate 3 = 0.21
